{"source": "PubChem BioAssay AID1159578 | Peter MacCallum Cancer Centre, 2015", "test": "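Genome-wide hunt for genes controlling movement of lymphatic endothelial cells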 (primary screen)", "system": "human lymphatic endothelial cells", "reagents": "siRNA pool against human genes, 40 nM", "duration": "48 h after transfection", "read-out": "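High-content imaging of dye-stained cells in a scratch assay measures filled wound area and nuclei per well; duplicate means given as ratio to mock and robust z-score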", "direction": "migration robust z-score: higher = faster migration into the scratch; nuclei per well: higher = more cells in the well", "hit rule": "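Migration changed when robust z exceeds 2 or falls below -2 and mean nuclei number is at least 3300; otherwise not called changed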", "meaning of the calls": "active = migration changed; inactive = no migration change, or too few cells", "note": "Shown is a random part of about 18,000 deposited reagents. Over the whole deposit, about 1,030 (5.7%) were called active. 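Inactive calls also include pools with fewer than 3300 nuclei, whose migration was not assessed.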 The raw values are shown without normalisation. A number with no mark means an inactive call. Not all columns of the deposit are shown."}
{"Target gene": "MAP4K2", "migration robust z-score": -0.6, "migration class with cell-count check": "migration z between -2 and 2; enough cells", "nuclei per well, duplicate mean": 4852}
{"Target gene": "PPP1R1C", "migration robust z-score": -0.91, "migration class with cell-count check": "migration z between -2 and 2; enough cells", "nuclei per well, duplicate mean": 4987}
{"Target gene": "MS4A1", "migration robust z-score": 0.12, "migration class with cell-count check": "migration z between -2 and 2; enough cells", "nuclei per well, duplicate mean": 5496}
{"Target gene": "ANO9", "migration robust z-score": 0.86, "migration class with cell-count check": "migration z between -2 and 2; enough cells", "nuclei per well, duplicate mean": 6442}
{"Target gene": "S100A1", "migration robust z-score": 1.36, "migration class with cell-count check": "migration z between -2 and 2; enough cells", "nuclei per well, duplicate mean": 4592}
{"Target gene": "SPEF2", "migration robust z-score": 0.72, "migration class with cell-count check": "migration z between -2 and 2; enough cells", "nuclei per well, duplicate mean": 5508}

Reformatted: results already given
MAP4K2
- migration robust z-score: -0.6
- migration class with cell-count check: migration z between -2 and 2; enough cells
- nuclei per well, duplicate mean: 4852

PPP1R1C
- migration robust z-score: -0.91
- migration class with cell-count check: migration z between -2 and 2; enough cells
- nuclei per well, duplicate mean: 4987

Further entries follow.
{"Target gene": "ADAMTS12", "migration robust z-score": 1.71, "migration class with cell-count check": "migration z between -2 and 2; enough cells", "nuclei per well, duplicate mean": 6008}
{"Target gene": "ADRA1A", "migration robust z-score": -0.52, "migration class with cell-count check": "migration z between -2 and 2; enough cells", "nuclei per well, duplicate mean": 6162}
{"Target gene": "BBS1", "migration robust z-score": -0.57, "migration class with cell-count check": "migration z between -2 and 2; enough cells", "nuclei per well, duplicate mean": 5917}
{"Target gene": "PTPN12", "migration robust z-score": -1.35, "migration class with cell-count check": "migration z between -2 and 2; enough cells", "nuclei per well, duplicate mean": 4828}
{"Target gene": "FOXD4L4", "migration robust z-score": -1.58, "migration class with cell-count check": "under 3300 nuclei; migration not judged", "nuclei per well, duplicate mean": 3180}
{"Target gene": "SKIC3", "migration robust z-score": -0.46, "migration class with cell-count check": "migration z between -2 and 2; enough cells", "nuclei per well, duplicate mean": 6354}
